Drawing on PubChem BioAssay AID194 (DTP/NCI, 2004), this text covers T/C for two compounds.

The list shows only some results of the screen, not a fair sample: its compounds were picked by chemical class. Other doses and runs of a compound may be missing. T/C is the treated group as % of the vehicle group. For survival time, the PubChem record calls one and a half times the control and up active, and a quarter to a half above the control has no call in these data; cut-offs in other NCI protocols can differ. Schedules are NCI's codes, taken here to give the interval after Q, in days (D) or hours (H), and the number of doses after X. Some T/C values are marked as having no survivor count here; that says nothing about deaths at the dose.

The assay has as its system BDF1 mice, B16 melanoma s.c., survival/tumor T/C. As to the kind of experiment: NCI In Vivo Anticancer Drug Screen. Data for tumor model B16 Melanoma (subcutaneous) in B6D2F1 (BDF1) mice. Conditions: T/C endpoint: median survival time, schedule: Q01DX009 (ip), higher T/C = longer survival. The method, then:
The antitumor activity of compounds was measured in mice bearing transplantable tumors. Survival or tumor size were measured and the results are expressed as the measurement made in the treated group (T) divided by the measurement made in the vehicle treated control group (C). The tumor model used in this assay is B16 Melanoma (subcutaneous) in B6D2F1 (BDF1) mice

As for `O=NN(CCSCCCl)C(=O)NC1CCCCC1`, the T/C was 131 % of control (dose: 6.25 mg/kg/injection, vehicle: saline with Tween-80); 102 % of control (dose: 12.5 mg/kg/injection, vehicle: saline with Tween-80); 142 % of control (dose: 50.0 mg/kg/injection, vehicle: saline with Tween-80).
Regarding `NC(Cc1ccc(O)c(N(CCCl)CCCl)c1)C(=O)O` (stereo not given), the T/C by setting is: (dose: 0.03 mg/kg/injection, vehicle: saline) 97 % of control [survivor count not shown]; (dose: 0.06 mg/kg/injection, vehicle: saline) 106 % of control [survivor count not shown]; (dose: 0.12 mg/kg/injection, vehicle: saline) 102 % of control [survivor count not shown]; (dose: 0.25 mg/kg/injection, vehicle: saline) 100 % of control [survivor count not shown]; (dose: 0.5 mg/kg/injection, vehicle: saline) 110 % of control [survivor count not shown]; (dose: 1.0 mg/kg/injection, vehicle: saline) 104 % of control [survivor count not shown]. Moreover, the T/C (dose: 2.0 mg/kg/injection, vehicle: saline) was 114 % of control [survivor count not shown].
